The list shows only some results of the screen, not a fair sample: it covers a few groups of compounds. Not every dose and run of a compound is shown. T/C is the treated group as % of the vehicle group. For survival time, this PubChem deposit counts one and a half times the control or more as active, and values a quarter to a half above the control carry no call in these data; other NCI protocols may use other cut-offs. Some entries show no survivor count and are marked so; the dose need not have been tolerated. Schedule codes are those of the source, taken here to give the interval after Q, in days (D) or hours (H), and the number of doses after X. Some schedules carry Z or #; the key to these is not given.
Tested on: CD2F1 mice, L1210 leukemia ip, survival T/C
Experiment: NCI In Vivo Anticancer Drug Screen. Data for tumor model L1210 Leukemia (intraperitoneal) in CD2F1 (CDF1) mice
Conditions: T/C endpoint: mean survival time, schedule: Q01DX Z (ip), vehicle: saline, higher T/C = longer survival
Procedure: The antitumor activity of compounds was measured in mice bearing transplantable tumors. Survival or tumor size were measured and the results are expressed as the measurement made in the treated group (T) divided by the measurement made in the vehicle treated control group (C). The tumor model used in this assay is L1210 Leukemia (intraperitoneal) in CD2F1 (CDF1) mice

Question: Which results are given for `ClCCNCCCNCCCl`?
Answer: T/C (dose: 36.0 mg/kg/injection): 147 % of control [survivor count not shown]; T/C (dose: 54.0 mg/kg/injection): 180 % of control [survivor count not shown]; T/C (dose: 81.0 mg/kg/injection): 147 % of control [survivor count not shown]; T/C (dose: 121.0 mg/kg/injection): 115 % of control [survivor count not shown]

From PubChem BioAssay AID256 (DTP/NCI, 2004)
